*: point of attachment. Cbz = O=C(OCc1ccccc1)*; OBn = c1ccc(CO*)cc1
Experiment: general procedure: solution-phase peptide synthesis; N,N'-dicyclohexylcarbodiimide / N-oxybenzotriazol

Substance | step yield (coupling step) [%] | step yield (late stage modification step) [%] | final HPLC purity (purification step, 220 nm) [%]
Cbz-K(Cbz)E(OBn)D(OBn)P-OBn | 95 |  | 
H-Lys-Glu-Asp-Trp-NH2 |  | 90 | 97.48
